Data: patent US20150119399A1, “BETA-CELL REPLICATION PROMOTING COMPOUNDS AND METHODS OF THEIR USE” (President and Fellows of Harvard College, priority 2012, published 2015)
Entries after “also recorded” stand apart in the source; their conditions may differ. At least one structure is not confirmed: it was looked up by name or label, or the drawing left a doubt.

Tests used:
beta-cells = experiment: beta-cell replication in dissociated rat islet cells (PDX-1/ki-67 imaging); format: cell-based; details: compound for 48 hours, relative to vehicle/DMSO control
Description: (§1) Rat islets were isolated and plated as previously described. In brief, rat islets were disassociated using 0.25% trypsin to obtain single cell suspension with occasional clusters of 2-3 cells. These cells were then plated in a 96-well format at a density of 80 k cells/well. The wells were pre-treated with conditioned media produced by the rat bladder carcinoma cell line 804G. After 48-hours, the cells were treated with compound at the indicated concentration or vehicle alone for 48 hours. The cells were then fixed and stained as previously described for the beta-cell marker PDX-1 and the replication marker ki-67. The beta-cell replication rate (the percentage of PDX-1^+ Cells that co-expressed ki-67) was quantified via automated imaging acquisition and analysis using a Cellomic ArrayScan. Each experimental was performed in replicas of four. p-values indicate a 2-tailed T-Test.
(§2) To quantify beta-cell replication rate, cells were identified as beta-cells if the contained both nuclear PDX-1 expression and cytoplasmic insulin staining. Replicating beta-cells were identified by the co-staining for ki-67. Alpha-cell replication was determined by determining the fraction of alpha-cells that co-expressed ki67. […] The fraction of dividing alpha-cells was determined by the proportion of alpha cells that co-expressed ki-67.

alpha-cells = experiment: alpha-cell replication in dissociated rat islet cells (glucagon/ki-67 imaging); format: cell-based; details: compound for 48 hours
Description: as §1, §2

wild-type mice [1] = experiment: plasma GLP-1 levels in vivo; details: 30 minutes after treatment, 0.3 mg/kg Tadalafil, 0.25 mg/kg Dipyridamole, 0.45 mg/kg Vardenafil
isolated rat islets = experiment: in vitro islet insulin secretion assay, rat islets
wild-type mice [2] = experiment: glucose tolerance in wild-type mice; format: in vivo, mouse; details: compound by itself
[3] = plasma insulin levels in vivo after intraperitoneal glucose; details: 30 minutes after treatment and intraperitoneal (IP) delivery of glucose, compared to DMSO

Row | Compound | beta-cell replication (percentage of PDX-1+ cells that co-expressed ki-67) (beta-cells) | alpha-cell replication (fraction of alpha-cells that co-expressed ki67) (alpha-cells) | plasma GLP-1 levels (wild-type mice [1]) | islet insulin secretion (isolated rat islets) | glucose tolerance (wild-type mice [2]) | plasma insulin levels [3]
1 | C=C[C@@]1(C)CC(=O)[C@]2(O)[C@@]3(C)[C@@H](O)CCC(C)(C)[C@@H]3[C@H](O)[C@H](OC(C)=O)[C@@]2(C)O1 [Forskolin] | enhanced beta-cell replication | enhanced alpha-cell replication | – | – | – | –
2 | CCCc1nc(C)c2c(=O)[nH]c(-c3cc(S(=O)(=O)N4CCN(CC)CC4)ccc3OCC)nn12 [Vardenafil] | did not increase beta-cell replication | – | but not Vardenafil, significantly increase plasma GLP-1 levels | do not enhance islet insulin secretion; also recorded: nor Vardenafil (FIG. 4B) significantly enhanced insulin secretion; also recorded: neither Vardenafil nor Tadalafil significantly enhanced insulin secretion | but not Vardenafil (FIG. 6B) improves glucose tolerance | not Vardenafil, increased plasma insulin levels; also recorded: but not Vardenafil, significantly increase plasma insulin levels
